Reference: PubChem BioAssay AID1224829 (NIAID, 2016)
Shown is a random part of about 3,800 reagents. 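Calls cover raised and lowered translocation; gene median uses one vendor's three siRNAs; qiagen siRNAs acted more weakly than ambion siRNAs.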

Purpose: 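Follow-up of TLR4-NF-kappaB regulators using six separate siRNAs for each gene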 (follow-up of hits)
System: mouse RAW264.7 G9 macrophage reporter cells
Reagent: single siRNA against mouse genes, 100 nM
Duration: 2 days of siRNA knock-down, then 40 min of LPS before fixing
Treatment: LPS (Salmonella minnesota R595) at 10 ng/ml
Detection: 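High-content images after 40 min LPS exposure; GFP-p65 nucleus to surrounding ring signal ratio, normalised to plate median and non-targeting control wells, expressed as z-score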
Reading the numbers: p65 translocation z-score and gene median z-score, per vendor: higher = more nuclear NF-kappaB p65 after LPS
Call rule: 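Active means the replicate-mean z-score lies beyond plus or minus 2, in either direction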
Calls: active = changed p65 translocation (either direction); inactive = no clear change

target gene	PubChem SID	siRNA vendor or control pool	p65 translocation z-score, replicate mean	p65 translocation z-score, replicate 1	p65 translocation z-score, replicate 2	gene median z-score, per vendor	outcome
Neu1 (neuraminidase 1)	SID315484575	ambion single siRNA	0.459	1.01	-0.0955	-0.411	inactive
Neu1 (neuraminidase 1)	SID315484576	ambion single siRNA	-1.2	-2.04	-0.371	-0.411	inactive
Neu1 (neuraminidase 1)	SID315484577	ambion single siRNA	-0.691	-0.451	-0.93	-0.411	inactive
Neu1 (neuraminidase 1)	SID315484578	qiagen single siRNA	2.33	3.16	1.49	1.78	active
Neu1 (neuraminidase 1)	SID315484579	qiagen single siRNA	1.4	-0.59	3.4	1.78	inactive
Neu1 (neuraminidase 1)	SID315484580	qiagen single siRNA	0.912	-0.236	2.06	1.78	inactive
Tmem107 (transmembrane protein 107)	SID315486414	ambion single siRNA	0.885	2.36	-0.587	-0.917	inactive
Tmem107 (transmembrane protein 107)	SID315486415	ambion single siRNA	-1.74	-1.25	-2.24	-0.917	inactive
Tmem107 (transmembrane protein 107)	SID315486416	ambion single siRNA	-1.97	-0.575	-3.36	-0.917	inactive
Tmem107 (transmembrane protein 107)	SID315486417	qiagen single siRNA	0.571	-0.443	1.58	-0.193	inactive
Tmem107 (transmembrane protein 107)	SID315486418	qiagen single siRNA	1.2	0.0578	2.35	-0.193	inactive
Tmem107 (transmembrane protein 107)	SID315486419	qiagen single siRNA	-1.02	-0.904	-1.13	-0.193	inactive

Continued (3 carried over from the part before).
target gene	PubChem SID	siRNA vendor or control pool	p65 translocation z-score, replicate mean	p65 translocation z-score, replicate 1	p65 translocation z-score, replicate 2	gene median z-score, per vendor	outcome
Tmem107 (transmembrane protein 107)	SID315486417	qiagen single siRNA	0.571	-0.443	1.58	-0.193	inactive
Tmem107 (transmembrane protein 107)	SID315486418	qiagen single siRNA	1.2	0.0578	2.35	-0.193	inactive
Tmem107 (transmembrane protein 107)	SID315486419	qiagen single siRNA	-1.02	-0.904	-1.13	-0.193	inactive
Mgat4b (mannoside acetylglucosaminyltransferase 4, isoenzyme B)	SID315487443	ambion single siRNA	-0.0869	0.564	-0.738	-1.1	inactive
Mgat4b (mannoside acetylglucosaminyltransferase 4, isoenzyme B)	SID315487444	ambion single siRNA	-4.41	-6.24	-2.59	-1.1	active
Mgat4b (mannoside acetylglucosaminyltransferase 4, isoenzyme B)	SID315487445	ambion single siRNA	-0.813	-0.162	-1.46	-1.1	inactive
Mgat4b (mannoside acetylglucosaminyltransferase 4, isoenzyme B)	SID315487446	qiagen single siRNA	1.59	-0.676	3.86	-0.785	inactive
Mgat4b (mannoside acetylglucosaminyltransferase 4, isoenzyme B)	SID315487447	qiagen single siRNA	-2.43	-0.894	-3.96	-0.785	active
Mgat4b (mannoside acetylglucosaminyltransferase 4, isoenzyme B)	SID315487448	qiagen single siRNA	-0.595	-1.45	0.258	-0.785	inactive
Neil2 (nei like 2 (E. coli))	SID315489123	ambion single siRNA	-1.81	-1.22	-2.41	-2.41	inactive
Neil2 (nei like 2 (E. coli))	SID315489124	ambion single siRNA	-4	-4		-2.41	active
Neil2 (nei like 2 (E. coli))	SID315489125	ambion single siRNA				-2.41	inactive
Neil2 (nei like 2 (E. coli))	SID315489126	qiagen single siRNA	-0.643	-1.31	0.0263	-0.643	inactive
Neil2 (nei like 2 (E. coli))	SID315489127	qiagen single siRNA	-1.55	-1.55		-0.643	inactive
Neil2 (nei like 2 (E. coli))	SID315489128	qiagen single siRNA	1.09	1.09		-0.643	inactive
